# PubChem BioAssay AID1224830 | NIAID, 2016
# Assay: 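Genes whose knock-down alters the TNF-alpha reporter response to LPS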 (primary screen)
# Cells: human THP-1 monocytic leukaemia cells, TNF dual-luciferase reporter clone, PMA-differentiated to macrophage-like cells
# Reagent: siRNA pool against human genes, 50 nM
# Duration: LPS for 4 h, given about 3 days after siRNA transfection
# Conditions: bacterial LPS (TLR4 ligand), 10 ng/ml
# Detection: 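Ratio of firefly to renilla light, scaled to the plate median and expressed as a robust z-score per replicate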
# Direction: TNF reporter robust z-score: higher = stronger TNF reporter response to LPS
# Call rule: 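Each well counts as active if its z-score is over 2.8 or under -1.5; controls are left without a call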
# This is one part, drawn at random, of about 18,000 reagents tested. About 2,900 of all reagents (16%) count as active. 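Calls are made per well; low scores hint the gene aids the LPS response, high scores that it dampens it.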 Unmarked entries are inactive. Repeated entries: four replicate wells of each siRNA pool.
gene knocked down,TNF reporter robust z-score
TAGLN2 (transgelin 2),-0.14
TAGLN2 (transgelin 2),0.5
TAGLN2 (transgelin 2),0.08
TAGLN2 (transgelin 2),-1.09
CCDC172 (coiled-coil domain containing 172),0.99
CCDC172 (coiled-coil domain containing 172),0.58
CCDC172 (coiled-coil domain containing 172),0.3
CCDC172 (coiled-coil domain containing 172),1.48
PRAMEF4 (PRAME family member 4),-0.35
PRAMEF4 (PRAME family member 4),-0.6
PRAMEF4 (PRAME family member 4),-0.42
PRAMEF4 (PRAME family member 4),0.95
NOL4L (nucleolar protein 4 like),0.11
NOL4L (nucleolar protein 4 like),-0.44
NOL4L (nucleolar protein 4 like),-0.36
NOL4L (nucleolar protein 4 like),0.05
"CLN3 (CLN3 lysosomal/endosomal transmembrane protein, battenin)",-0.86
"CLN3 (CLN3 lysosomal/endosomal transmembrane protein, battenin)",0.67
"CLN3 (CLN3 lysosomal/endosomal transmembrane protein, battenin)",0.5
"CLN3 (CLN3 lysosomal/endosomal transmembrane protein, battenin)",-0.07
ZNF22 (zinc finger protein 22),-0.75
ZNF22 (zinc finger protein 22),-0.06
ZNF22 (zinc finger protein 22),-0.72
ZNF22 (zinc finger protein 22),-0.32
SACK1F (scaffolding CK1 anchoring protein F),1.8
SACK1F (scaffolding CK1 anchoring protein F),3.76 (active)
SACK1F (scaffolding CK1 anchoring protein F),2.5
SACK1F (scaffolding CK1 anchoring protein F),3.64 (active)
"NPAT (nuclear protein, coactivator of histone transcription)",2.77
"NPAT (nuclear protein, coactivator of histone transcription)",2.36
"NPAT (nuclear protein, coactivator of histone transcription)",-0.07
"NPAT (nuclear protein, coactivator of histone transcription)",-0.34
KLHL38 (kelch like family member 38),-0.47
KLHL38 (kelch like family member 38),-0.22
KLHL38 (kelch like family member 38),-0.63
KLHL38 (kelch like family member 38),-0.32
RNASE12 (ribonuclease A family member 12 (inactive)),0.82
RNASE12 (ribonuclease A family member 12 (inactive)),0.91
RNASE12 (ribonuclease A family member 12 (inactive)),1.3
RNASE12 (ribonuclease A family member 12 (inactive)),0.28
"PLEKHH1 (pleckstrin homology, MyTH4 and FERM domain containing H1)",-0.12
"PLEKHH1 (pleckstrin homology, MyTH4 and FERM domain containing H1)",1.18
"PLEKHH1 (pleckstrin homology, MyTH4 and FERM domain containing H1)",0.65
"PLEKHH1 (pleckstrin homology, MyTH4 and FERM domain containing H1)",1.16
DSTYK (dual serine/threonine and tyrosine protein kinase),-1.74 (active)
DSTYK (dual serine/threonine and tyrosine protein kinase),-1.8 (active)
DSTYK (dual serine/threonine and tyrosine protein kinase),-1.84 (active)
DSTYK (dual serine/threonine and tyrosine protein kinase),-2.11 (active)
RBM4B (RNA binding motif protein 4B),0.89
RBM4B (RNA binding motif protein 4B),-0.41
RBM4B (RNA binding motif protein 4B),-0.64
RBM4B (RNA binding motif protein 4B),-0.19
BMP10 (bone morphogenetic protein 10),0.52
BMP10 (bone morphogenetic protein 10),2.29
BMP10 (bone morphogenetic protein 10),1.21
BMP10 (bone morphogenetic protein 10),1.28
RNPEP (arginyl aminopeptidase),-0.01
RNPEP (arginyl aminopeptidase),-1.04
RNPEP (arginyl aminopeptidase),0.04
RNPEP (arginyl aminopeptidase),0.01
COPS5 (COP9 signalosome subunit 5),-1.27
COPS5 (COP9 signalosome subunit 5),-1.29
COPS5 (COP9 signalosome subunit 5),-1.52 (active)
COPS5 (COP9 signalosome subunit 5),-1.59 (active)
MYO7B (myosin VIIB),-0.88
MYO7B (myosin VIIB),0.45
MYO7B (myosin VIIB),2.14
MYO7B (myosin VIIB),0.69
GALNS (galactosamine (N-acetyl)-6-sulfatase),-0.21
GALNS (galactosamine (N-acetyl)-6-sulfatase),-0.8
GALNS (galactosamine (N-acetyl)-6-sulfatase),-0.55
GALNS (galactosamine (N-acetyl)-6-sulfatase),-0.52
GATA4 (GATA binding protein 4),-1.1
GATA4 (GATA binding protein 4),-0.27
GATA4 (GATA binding protein 4),-0.08
GATA4 (GATA binding protein 4),0.38
CSF2RA (colony stimulating factor 2 receptor subunit alpha),0.12
CSF2RA (colony stimulating factor 2 receptor subunit alpha),0.8
CSF2RA (colony stimulating factor 2 receptor subunit alpha),0.19
CSF2RA (colony stimulating factor 2 receptor subunit alpha),0.22
SPTLC1 (serine palmitoyltransferase long chain base subunit 1),-0.83
SPTLC1 (serine palmitoyltransferase long chain base subunit 1),0.57
SPTLC1 (serine palmitoyltransferase long chain base subunit 1),-0.19
SPTLC1 (serine palmitoyltransferase long chain base subunit 1),0.05
NECAP2 (NECAP endocytosis associated 2),1.29
NECAP2 (NECAP endocytosis associated 2),2.48
NECAP2 (NECAP endocytosis associated 2),1.43
NECAP2 (NECAP endocytosis associated 2),4.2 (active)
SHOC1 (shortage in chiasmata 1),-0.29
SHOC1 (shortage in chiasmata 1),0.07
SHOC1 (shortage in chiasmata 1),-0.04
SHOC1 (shortage in chiasmata 1),-0.05
PHKA1 (phosphorylase kinase regulatory subunit alpha 1),-1
PHKA1 (phosphorylase kinase regulatory subunit alpha 1),0.15
PHKA1 (phosphorylase kinase regulatory subunit alpha 1),-0.75
PHKA1 (phosphorylase kinase regulatory subunit alpha 1),1.15
USP9Y (ubiquitin specific peptidase 9 Y-linked),-1.18
USP9Y (ubiquitin specific peptidase 9 Y-linked),-0.68
USP9Y (ubiquitin specific peptidase 9 Y-linked),-0.41
USP9Y (ubiquitin specific peptidase 9 Y-linked),0.57
NXPH3 (neurexophilin 3),-0.54
NXPH3 (neurexophilin 3),0.97
NXPH3 (neurexophilin 3),-0.28
NXPH3 (neurexophilin 3),-1.08
"RAB6A (RAB6A, member RAS oncogene family)",0.82
"RAB6A (RAB6A, member RAS oncogene family)",0.22
"RAB6A (RAB6A, member RAS oncogene family)",-0.09
"RAB6A (RAB6A, member RAS oncogene family)",0.62
TSPYL2 (TSPY like 2),0.61
TSPYL2 (TSPY like 2),0.28
TSPYL2 (TSPY like 2),0.58
TSPYL2 (TSPY like 2),1.19
PTEN (phosphatase and tensin homolog),0.01
PTEN (phosphatase and tensin homolog),-0.82
PTEN (phosphatase and tensin homolog),-0.47
PTEN (phosphatase and tensin homolog),-1.59 (active)
CATSPER2 (cation channel sperm associated 2),-0.51
CATSPER2 (cation channel sperm associated 2),-0.94
CATSPER2 (cation channel sperm associated 2),-1.22
CATSPER2 (cation channel sperm associated 2),-0.33
KRT10-AS1 (KRT10 antisense RNA 1),-0.12
KRT10-AS1 (KRT10 antisense RNA 1),-1.44
KRT10-AS1 (KRT10 antisense RNA 1),-0.61
KRT10-AS1 (KRT10 antisense RNA 1),-0.04
FYTTD1 (forty-two-three domain containing 1),-0.77
FYTTD1 (forty-two-three domain containing 1),-1.07
FYTTD1 (forty-two-three domain containing 1),-1.35
FYTTD1 (forty-two-three domain containing 1),-1.13
G6PC3 (glucose-6-phosphatase catalytic subunit 3),1.79
G6PC3 (glucose-6-phosphatase catalytic subunit 3),0.69
G6PC3 (glucose-6-phosphatase catalytic subunit 3),1.06
G6PC3 (glucose-6-phosphatase catalytic subunit 3),0.19
SRGAP3 (SLIT-ROBO Rho GTPase activating protein 3),-0.75
SRGAP3 (SLIT-ROBO Rho GTPase activating protein 3),1.22
SRGAP3 (SLIT-ROBO Rho GTPase activating protein 3),1.7
SRGAP3 (SLIT-ROBO Rho GTPase activating protein 3),0.83
AP5B1 (adaptor related protein complex 5 subunit beta 1),1.34
AP5B1 (adaptor related protein complex 5 subunit beta 1),-0.26
AP5B1 (adaptor related protein complex 5 subunit beta 1),0.01
AP5B1 (adaptor related protein complex 5 subunit beta 1),0.54

Hits, of those listed so far:
gene knocked down,TNF reporter robust z-score
SACK1F (scaffolding CK1 anchoring protein F),3.76 (active)
SACK1F (scaffolding CK1 anchoring protein F),3.64 (active)
DSTYK (dual serine/threonine and tyrosine protein kinase),-1.74 (active)
DSTYK (dual serine/threonine and tyrosine protein kinase),-1.8 (active)
DSTYK (dual serine/threonine and tyrosine protein kinase),-1.84 (active)
DSTYK (dual serine/threonine and tyrosine protein kinase),-2.11 (active)
COPS5 (COP9 signalosome subunit 5),-1.52 (active)
COPS5 (COP9 signalosome subunit 5),-1.59 (active)
NECAP2 (NECAP endocytosis associated 2),4.2 (active)
PTEN (phosphatase and tensin homolog),-1.59 (active)
